According to publication PMC9839780:
These are yes or no findings as the source states them, for the method shown. Binding seen in cells or lysates may run through a third protein. A yes stands for co-enrichment or nearness to the bait. Other partners may have been found.

Chains of the proteins cited; added tags and fusions are not shown. Residues count along the entry.
UniProt Q9UN81: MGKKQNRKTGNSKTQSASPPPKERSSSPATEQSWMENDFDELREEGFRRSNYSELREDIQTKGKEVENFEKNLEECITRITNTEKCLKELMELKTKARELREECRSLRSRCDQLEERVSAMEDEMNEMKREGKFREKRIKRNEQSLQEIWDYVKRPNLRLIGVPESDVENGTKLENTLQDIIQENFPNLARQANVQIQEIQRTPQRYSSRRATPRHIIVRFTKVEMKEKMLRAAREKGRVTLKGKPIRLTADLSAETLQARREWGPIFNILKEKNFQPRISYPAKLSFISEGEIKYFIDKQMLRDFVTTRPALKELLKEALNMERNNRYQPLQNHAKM
UniProt Q9UH17: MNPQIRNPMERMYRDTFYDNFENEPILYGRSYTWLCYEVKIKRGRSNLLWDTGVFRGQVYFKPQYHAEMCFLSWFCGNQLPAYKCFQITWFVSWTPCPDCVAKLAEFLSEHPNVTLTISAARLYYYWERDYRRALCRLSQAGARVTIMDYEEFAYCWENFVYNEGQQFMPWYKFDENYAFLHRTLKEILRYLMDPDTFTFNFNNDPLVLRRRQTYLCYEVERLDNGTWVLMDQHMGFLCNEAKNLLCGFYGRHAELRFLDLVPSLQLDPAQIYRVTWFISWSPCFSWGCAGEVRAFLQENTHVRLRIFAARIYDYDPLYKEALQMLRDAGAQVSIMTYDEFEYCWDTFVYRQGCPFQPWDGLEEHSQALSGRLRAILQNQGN
UniProt Q8IY21: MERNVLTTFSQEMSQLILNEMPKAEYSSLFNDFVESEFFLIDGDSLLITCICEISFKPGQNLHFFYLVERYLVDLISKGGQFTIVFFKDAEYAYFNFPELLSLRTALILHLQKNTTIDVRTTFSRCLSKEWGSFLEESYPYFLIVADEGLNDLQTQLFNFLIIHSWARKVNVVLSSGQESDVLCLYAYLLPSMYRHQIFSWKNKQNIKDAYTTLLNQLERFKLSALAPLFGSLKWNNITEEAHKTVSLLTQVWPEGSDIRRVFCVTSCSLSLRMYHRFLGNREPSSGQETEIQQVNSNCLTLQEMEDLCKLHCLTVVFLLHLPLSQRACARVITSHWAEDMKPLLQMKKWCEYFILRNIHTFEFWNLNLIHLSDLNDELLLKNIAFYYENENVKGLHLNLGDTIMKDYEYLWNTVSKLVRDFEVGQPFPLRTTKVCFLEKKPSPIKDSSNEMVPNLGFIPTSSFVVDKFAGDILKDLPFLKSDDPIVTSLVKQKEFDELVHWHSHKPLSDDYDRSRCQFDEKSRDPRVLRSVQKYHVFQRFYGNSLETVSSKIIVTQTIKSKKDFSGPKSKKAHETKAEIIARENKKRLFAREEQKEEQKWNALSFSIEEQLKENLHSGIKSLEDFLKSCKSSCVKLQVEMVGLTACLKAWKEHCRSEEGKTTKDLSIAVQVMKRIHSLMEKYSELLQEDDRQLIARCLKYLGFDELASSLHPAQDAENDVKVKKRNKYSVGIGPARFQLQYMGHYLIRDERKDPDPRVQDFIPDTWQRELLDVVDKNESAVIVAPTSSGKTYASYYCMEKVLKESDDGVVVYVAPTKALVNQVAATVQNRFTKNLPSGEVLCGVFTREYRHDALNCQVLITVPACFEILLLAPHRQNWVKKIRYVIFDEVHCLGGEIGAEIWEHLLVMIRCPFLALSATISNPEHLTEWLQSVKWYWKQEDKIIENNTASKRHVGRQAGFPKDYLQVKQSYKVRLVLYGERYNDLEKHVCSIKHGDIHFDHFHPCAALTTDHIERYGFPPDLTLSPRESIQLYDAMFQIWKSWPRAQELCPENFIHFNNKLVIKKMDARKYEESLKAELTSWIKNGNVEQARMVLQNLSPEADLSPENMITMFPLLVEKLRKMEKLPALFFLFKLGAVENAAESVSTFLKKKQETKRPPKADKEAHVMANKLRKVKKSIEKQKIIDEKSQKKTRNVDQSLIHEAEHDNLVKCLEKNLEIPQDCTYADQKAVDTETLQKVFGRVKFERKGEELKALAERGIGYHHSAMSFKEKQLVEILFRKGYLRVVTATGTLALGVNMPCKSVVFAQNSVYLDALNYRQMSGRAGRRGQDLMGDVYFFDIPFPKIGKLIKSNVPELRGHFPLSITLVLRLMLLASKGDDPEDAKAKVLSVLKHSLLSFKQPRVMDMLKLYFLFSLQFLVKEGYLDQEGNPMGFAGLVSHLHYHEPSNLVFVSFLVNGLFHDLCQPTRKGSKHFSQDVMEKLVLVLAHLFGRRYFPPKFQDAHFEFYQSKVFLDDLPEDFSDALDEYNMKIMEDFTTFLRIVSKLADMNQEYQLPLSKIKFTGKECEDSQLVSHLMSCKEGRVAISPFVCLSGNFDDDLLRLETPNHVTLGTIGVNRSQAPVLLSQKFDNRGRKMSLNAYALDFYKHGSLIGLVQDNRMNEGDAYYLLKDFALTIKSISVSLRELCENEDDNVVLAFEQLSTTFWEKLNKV
UniProt Q96C10: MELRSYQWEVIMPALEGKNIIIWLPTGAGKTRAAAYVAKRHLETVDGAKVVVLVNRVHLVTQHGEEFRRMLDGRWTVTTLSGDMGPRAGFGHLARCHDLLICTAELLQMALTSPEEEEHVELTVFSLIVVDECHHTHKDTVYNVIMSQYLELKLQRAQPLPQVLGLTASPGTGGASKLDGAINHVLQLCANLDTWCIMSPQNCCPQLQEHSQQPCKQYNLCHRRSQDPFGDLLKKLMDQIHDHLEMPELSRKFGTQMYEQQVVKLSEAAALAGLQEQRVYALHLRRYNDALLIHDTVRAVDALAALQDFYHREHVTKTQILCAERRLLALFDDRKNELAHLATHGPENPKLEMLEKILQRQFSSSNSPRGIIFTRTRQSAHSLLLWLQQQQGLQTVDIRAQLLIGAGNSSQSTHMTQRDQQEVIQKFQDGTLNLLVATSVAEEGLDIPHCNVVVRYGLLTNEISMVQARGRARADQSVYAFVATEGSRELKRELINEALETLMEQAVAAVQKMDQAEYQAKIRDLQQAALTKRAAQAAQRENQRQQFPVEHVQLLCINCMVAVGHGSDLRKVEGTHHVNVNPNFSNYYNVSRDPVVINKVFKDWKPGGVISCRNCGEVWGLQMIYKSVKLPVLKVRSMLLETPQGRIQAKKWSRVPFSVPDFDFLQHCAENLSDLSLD
UniProt P19525: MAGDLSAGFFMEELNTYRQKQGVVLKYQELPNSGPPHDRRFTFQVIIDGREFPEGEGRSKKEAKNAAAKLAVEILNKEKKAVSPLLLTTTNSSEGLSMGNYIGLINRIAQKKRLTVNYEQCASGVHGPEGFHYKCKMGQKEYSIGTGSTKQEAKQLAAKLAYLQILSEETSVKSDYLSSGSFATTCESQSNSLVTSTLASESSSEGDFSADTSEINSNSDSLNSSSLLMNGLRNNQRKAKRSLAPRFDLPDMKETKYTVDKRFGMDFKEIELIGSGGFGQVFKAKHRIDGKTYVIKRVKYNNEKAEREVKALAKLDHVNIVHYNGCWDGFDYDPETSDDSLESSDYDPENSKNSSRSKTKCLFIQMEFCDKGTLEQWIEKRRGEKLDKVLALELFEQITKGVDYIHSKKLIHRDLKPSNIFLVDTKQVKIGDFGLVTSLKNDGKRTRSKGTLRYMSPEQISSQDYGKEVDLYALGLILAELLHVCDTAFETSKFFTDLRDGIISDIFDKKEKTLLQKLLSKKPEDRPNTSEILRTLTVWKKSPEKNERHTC
UniProt Q16666: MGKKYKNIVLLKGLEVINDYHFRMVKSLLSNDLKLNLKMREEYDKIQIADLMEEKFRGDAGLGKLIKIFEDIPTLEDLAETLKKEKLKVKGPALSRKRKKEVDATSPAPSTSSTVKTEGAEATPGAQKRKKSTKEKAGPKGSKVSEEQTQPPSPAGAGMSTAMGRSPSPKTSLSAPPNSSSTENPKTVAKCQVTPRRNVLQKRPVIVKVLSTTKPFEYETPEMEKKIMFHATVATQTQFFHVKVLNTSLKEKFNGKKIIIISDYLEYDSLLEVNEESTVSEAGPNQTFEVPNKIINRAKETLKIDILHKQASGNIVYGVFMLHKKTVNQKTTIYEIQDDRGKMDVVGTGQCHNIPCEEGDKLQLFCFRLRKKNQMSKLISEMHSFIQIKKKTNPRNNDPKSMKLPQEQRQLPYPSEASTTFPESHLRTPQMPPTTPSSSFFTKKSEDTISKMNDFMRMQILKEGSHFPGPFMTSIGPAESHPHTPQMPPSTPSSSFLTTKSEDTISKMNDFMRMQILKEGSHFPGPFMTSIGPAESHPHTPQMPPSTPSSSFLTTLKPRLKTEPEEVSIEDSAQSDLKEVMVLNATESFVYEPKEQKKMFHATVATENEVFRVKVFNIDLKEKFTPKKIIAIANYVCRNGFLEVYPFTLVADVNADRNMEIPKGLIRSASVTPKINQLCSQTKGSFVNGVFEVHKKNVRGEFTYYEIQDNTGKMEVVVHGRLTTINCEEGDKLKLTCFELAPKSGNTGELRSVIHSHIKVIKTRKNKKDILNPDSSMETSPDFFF
UniProt Q08380, residues 19-585: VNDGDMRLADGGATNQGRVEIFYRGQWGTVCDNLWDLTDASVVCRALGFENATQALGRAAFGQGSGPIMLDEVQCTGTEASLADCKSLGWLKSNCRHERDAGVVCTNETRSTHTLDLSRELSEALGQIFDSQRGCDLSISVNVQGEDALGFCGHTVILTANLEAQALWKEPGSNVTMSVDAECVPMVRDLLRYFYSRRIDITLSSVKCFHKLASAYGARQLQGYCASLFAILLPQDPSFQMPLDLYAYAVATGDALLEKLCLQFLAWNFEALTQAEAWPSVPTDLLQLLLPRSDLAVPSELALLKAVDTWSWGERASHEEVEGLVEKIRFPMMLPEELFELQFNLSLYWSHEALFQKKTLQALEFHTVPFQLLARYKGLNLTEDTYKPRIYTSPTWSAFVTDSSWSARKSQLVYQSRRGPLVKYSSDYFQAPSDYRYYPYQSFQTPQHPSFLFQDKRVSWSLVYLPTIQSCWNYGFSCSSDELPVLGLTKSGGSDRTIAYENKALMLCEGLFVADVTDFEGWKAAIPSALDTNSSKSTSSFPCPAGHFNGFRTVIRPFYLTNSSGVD
UniProt Q9H0J9: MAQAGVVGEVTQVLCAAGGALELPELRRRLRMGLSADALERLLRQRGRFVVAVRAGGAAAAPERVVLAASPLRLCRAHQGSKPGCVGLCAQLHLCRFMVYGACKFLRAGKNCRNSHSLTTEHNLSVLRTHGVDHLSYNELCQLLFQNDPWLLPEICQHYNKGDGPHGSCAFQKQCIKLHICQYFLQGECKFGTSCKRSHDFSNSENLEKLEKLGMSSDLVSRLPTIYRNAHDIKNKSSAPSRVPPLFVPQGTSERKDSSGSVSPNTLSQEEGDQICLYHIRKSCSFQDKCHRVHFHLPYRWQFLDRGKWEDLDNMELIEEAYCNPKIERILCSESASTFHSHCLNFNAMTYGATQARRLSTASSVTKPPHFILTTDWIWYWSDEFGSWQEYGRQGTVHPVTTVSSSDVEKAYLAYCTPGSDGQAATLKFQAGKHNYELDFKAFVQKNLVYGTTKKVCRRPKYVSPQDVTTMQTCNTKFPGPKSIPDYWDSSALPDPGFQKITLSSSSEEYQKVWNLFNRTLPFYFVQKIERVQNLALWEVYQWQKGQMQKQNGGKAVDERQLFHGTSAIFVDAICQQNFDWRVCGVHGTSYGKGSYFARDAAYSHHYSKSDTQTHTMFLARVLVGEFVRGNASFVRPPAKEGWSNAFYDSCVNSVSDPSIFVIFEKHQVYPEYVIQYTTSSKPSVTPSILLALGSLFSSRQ
UniProt Q14258: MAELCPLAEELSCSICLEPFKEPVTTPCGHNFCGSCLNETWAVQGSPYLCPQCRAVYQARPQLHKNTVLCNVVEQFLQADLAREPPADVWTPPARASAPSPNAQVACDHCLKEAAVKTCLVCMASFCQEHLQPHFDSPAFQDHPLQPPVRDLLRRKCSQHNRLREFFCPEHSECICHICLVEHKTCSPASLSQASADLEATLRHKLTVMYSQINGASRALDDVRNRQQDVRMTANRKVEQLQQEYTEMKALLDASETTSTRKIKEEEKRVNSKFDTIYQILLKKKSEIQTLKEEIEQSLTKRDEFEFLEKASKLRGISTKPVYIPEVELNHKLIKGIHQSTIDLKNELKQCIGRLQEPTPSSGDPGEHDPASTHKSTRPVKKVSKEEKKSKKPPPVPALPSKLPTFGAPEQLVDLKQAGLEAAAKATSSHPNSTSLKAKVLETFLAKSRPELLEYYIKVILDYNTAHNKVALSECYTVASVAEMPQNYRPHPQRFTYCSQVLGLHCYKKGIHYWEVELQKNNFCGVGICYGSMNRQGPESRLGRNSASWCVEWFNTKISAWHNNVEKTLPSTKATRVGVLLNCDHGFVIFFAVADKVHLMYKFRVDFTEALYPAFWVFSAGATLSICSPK

Target: WT ORF1p-FLAG (L1.3 ORF1-encoded protein with a carboxyl-terminal FLAG epitope tag, expressed from pJM101/L1.3FLAG) (human) (UniProt Q9UN81)
Test: affinity purification with mass spectrometry; HeLa-JVM cells transfected with L1 constructs; anti-FLAG M2 on Dynabeads Protein G, Lysis150 buffer (20 mM Tris-HCl pH 7.5, 2.5 mM MgCl2, 150 mM KCl, 0.5% IGEPAL CA-630, 1 mM DTT), 4 °C, elution with 3xFLAG peptide; LC-MS/MS with label-free quantification, WT ORF1p-FLAG vs. M8/RBM-FLAG

Molecule	binding
ADARB1 (from UniProt P78563 1-741)	binds
APOBEC3B (from UniProt Q9UH17 1-382)	binds
DDX60 (from UniProt Q8IY21 1-1712)	binds
DDX60L, endogenous (from UniProt Q5H9U9 1-1706)	binds
DHX58 (from UniProt Q96C10 1-678)	binds
EIF2AK2 (from UniProt P19525 1-551)	binds
IFI16 (from UniProt Q16666 1-785)	binds
LGALS3BP (from UniProt Q08380 19-585)	binds
PARP12 (from UniProt Q9H0J9 1-701)	binds
TRIM25 (from UniProt Q14258 1-630)	binds
ZC3HAV1 (zinc-finger antiviral protein, ZAP) (from UniProt Q7Z2W4 1-902)	binds
IFIT3 (protein, UniProt O14879 1-490) MSEVTKNSLEKILPQLKCHFTWNLFKEDSVSRDLEDRVCNQIEFLNTEFKATMYNLLAYIKHLDGNNEAALECLRQAEELIQQEHADQAEIRSLVTWGNYAWVYYHLGRLSDAQIYVDKVKQTCKKFSNPYSIEYSELDCEEGWTQLKCGRNERAKVCFEKALEEKPNNPEFSSGLAIAMYHLDNHPEKQFSTDVLKQAIELSPDNQYVKVLLGLKLQKMNKEAEGEQFVEEALEKSPCQTDVLRSAAKFYRRKGDLDKAIELFQRVLESTPNNGYLYHQIGCCYKAKVRQMQNTGESEASGNKEMIEALKQYAMDYSNKALEKGLNPLNAYSDLAEFLETECYQTPFNKEVPDAEKQQSHQRYCNLQKYNGKSEDTAVQHGLEGLSISKKSTDKEEIKDQPQNVSENLLPQNAPNYWYLQGLIHKQNGDLLQAAKCYEKELGRLLRDAPSGIGSIFLSASELEDGSEEMGQGAVSSSPRELLSNSEQLN	binds
2'-5'-oligoadenylate synthetase-like (OASL), endogenous (protein, UniProt Q15646 1-514) MALMQELYSTPASRLDSFVAQWLQPHREWKEEVLDAVRTVEEFLRQEHFQGKRGLDQDVRVLKVVKVGSFGNGTVLRSTREVELVAFLSCFHSFQEAAKHHKDVLRLIWKTMWQSQDLLDLGLEDLRMEQRVPDALVFTIQTRGTAEPITVTIVPAYRALGPSLPNSQPPPEVYVSLIKACGGPGNFCPSFSELQRNFVKHRPTKLKSLLRLVKHWYQQYVKARSPRANLPPLYALELLTIYAWEMGTEEDENFMLDEGFTTVMDLLLEYEVICIYWTKYYTLHNAIIEDCVRKQLKKERPIILDPADPTLNVAEGYRWDIVAQRASQCLKQDCCYDNRENPISSWNVKRARDIHLTVEQRGYPDFNLIVNPYEPIRKVKEKIRRTRGYSGLQRLSFQVPGSERQLLSSRCSLAKYGIFSHTHIYLLETIPSEIQVFVKNPDGGSYAYAINPNSFILGLKQQIEDQQGLPKKQQQLEFQGQVLQDWLGLGIYGIQDSDTLILSKKKGEALFPAS	binds
IFIT2 (protein, UniProt P09913 1-472) MSENNKNSLESSLRQLKCHFTWNLMEGENSLDDFEDKVFYRTEFQNREFKATMCNLLAYLKHLKGQNEAALECLRKAEELIQQEHADQAEIRSLVTWGNYAWVYYHMGRLSDVQIYVDKVKHVCEKFSSPYRIESPELDCEEGWTRLKCGGNQNERAKVCFEKALEKKPKNPEFTSGLAIASYRLDNWPPSQNAIDPLRQAIRLNPDNQYLKVLLALKLHKMREEGEEEGEGEKLVEEALEKAPGVTDVLRSAAKFYRRKDEPDKAIELLKKALEYIPNNAYLHCQIGCCYRAKVFQVMNLRENGMYGKRKLLELIGHAVAHLKKADEANDNLFRVCSILASLHALADQYEDAEYYFQKEFSKELTPVAKQLLHLRYGNFQLYQMKCEDKAIHHFIEGVKINQKSREKEKMKDKLQKIAKMRLSKNGADSEALHVLAFLQELNEKMQQADEDSERGLESGSLIPSASSWNGE	binds
ADAR (protein, UniProt P55265 1-1226) MNPRQGYSLSGYYTHPFQGYEHRQLRYQQPGPGSSPSSFLLKQIEFLKGQLPEAPVIGKQTPSLPPSLPGLRPRFPVLLASSTRGRQVDIRGVPRGVHLRSQGLQRGFQHPSPRGRSLPQRGVDCLSSHFQELSIYQDQEQRILKFLEELGEGKATTAHDLSGKLGTPKKEINRVLYSLAKKGKLQKEAGTPPLWKIAVSTQAWNQHSGVVRPDGHSQGAPNSDPSLEPEDRNSTSVSEDLLEPFIAVSAQAWNQHSGVVRPDSHSQGSPNSDPGLEPEDSNSTSALEDPLEFLDMAEIKEKICDYLFNVSDSSALNLAKNIGLTKARDINAVLIDMERQGDVYRQGTTPPIWHLTDKKRERMQIKRNTNSVPETAPAAIPETKRNAEFLTCNIPTSNASNNMVTTEKVENGQEPVIKLENRQEARPEPARLKPPVHYNGPSKAGYVDFENGQWATDDIPDDLNSIRAAPGEFRAIMEMPSFYSHGLPRCSPYKKLTECQLKNPISGLLEYAQFASQTCEFNMIEQSGPPHEPRFKFQVVINGREFPPAEAGSKKVAKQDAAMKAMTILLEEAKAKDSGKSEESSHYSTEKESEKTAESQTPTPSATSFFSGKSPVTTLLECMHKLGNSCEFRLLSKEGPAHEPKFQYCVAVGAQTFPSVSAPSKKVAKQMAAEEAMKALHGEATNSMASDNQPEGMISESLDNLESMMPNKVRKIGELVRYLNTNPVGGLLEYARSHGFAAEFKLVDQSGPPHEPKFVYQAKVGGRWFPAVCAHSKKQGKQEAADAALRVLIGENEKAERMGFTEVTPVTGASLRRTMLLLSRSPEAQPKTLPLTGSTFHDQIAMLSHRCFNTLTNSFQPSLLGRKILAAIIMKKDSEDMGVVVSLGTGNRCVKGDSLSLKGETVNDCHAEIISRRGFIRFLYSELMKYNSQTAKDSIFEPAKGGEKLQIKKTVSFHLYISTAPCGDGALFDKSCSDRAMESTESRHYPVFENPKQGKLRTKVENGEGTIPVESSDIVPTWDGIRLGERLRTMSCSDKILRWNVLGLQGALLTHFLQPIYLKSVTLGYLFSQGHLTRAICCRVTRDGSAFEDGLRHPFIVNHPKVGRVSIYDSKRQSGKTKETSVNWCLADGYDLEILDGTRGTVDGPRNELSRVSKKNIFLLFKKLCSFRYRRDLLRLSYGEAKKAARDYETAKNYFKKGLKDMGYGNWISKPQEEKNFYLCPV	binds
IFIT1, endogenous (protein, UniProt P09914 1-478) MSTNGDDHQVKDSLEQLRCHFTWELSIDDDEMPDLENRVLDQIEFLDTKYSVGIHNLLAYVKHLKGQNEEALKSLKEAENLMQEEHDNQANVRSLVTWGNFAWMYYHMGRLAEAQTYLDKVENICKKLSNPFRYRMECPEIDCEEGWALLKCGGKNYERAKACFEKVLEVDPENPESSAGYAISAYRLDGFKLATKNHKPFSLLPLRQAVRLNPDNGYIKVLLALKLQDEGQEAEGEKYIEEALANMSSQTYVFRYAAKFYRRKGSVDKALELLKKALQETPTSVLLHHQIGLCYKAQMIQIKEATKGQPRGQNREKLDKMIRSAIFHFESAVEKKPTFEVAHLDLARMYIEAGNHRKAEENFQKLLCMKPVVEETMQDIHFHYGRFQEFQKKSDVNAIIHYLKAIKIEQASLTRDKSINSLKKLVLRKLRRKALDLESLSLLGFVYKLEGNMNEALEYYERALRLAADFENSVRQGP	binds
HECT and RLD domain containing E3 ubiquitin-protein ligase 5 (HERC5), endogenous (protein, UniProt Q9UII4 1-1024) MERRSRRKSRRNGRSTAGKAAATQPAKSPGAQLWLFPSAAGLHRALLRRVEVTRQLCCSPGRLAVLERGGAGVQVHQLLAGSGGARTPKCIKLGKNMKIHSVDQGAEHMLILSSDGKPFEYDNYSMKHLRFESILQEKKIIQITCGDYHSLALSKGGELFAWGQNLHGQLGVGRKFPSTTTPQIVEHLAGVPLAQISAGEAHSMALSMSGNIYSWGKNECGQLGLGHTESKDDPSLIEGLDNQKVEFVACGGSHSALLTQDGLLFTFGAGKHGQLGHNSTQNELRPCLVAELVGYRVTQIACGRWHTLAYVSDLGKVFSFGSGKDGQLGNGGTRDQLMPLPVKVSSSEELKLESHTSEKELIMIAGGNQSILLWIKKENSYVNLKRTIPTLNEGTVKRWIADVETKRWQSTKREIQEIFSSPACLTGSFLRKRRTTEMMPVYLDLNKARNIFKELTQKDWITNMITTCLKDNLLKRLPFHSPPQEALEIFFLLPECPMMHISNNWESLVVPFAKVVCKMSDQSSLVLEEYWATLQESTFSKLVQMFKTAVICQLDYWDESAEENGNVQALLEMLKKLHRVNQVKCQLPESIFQVDELLHRLNFFVEVCRRYLWKMTVDASENVQCCVIFSHFPFIFNNLSKIKLLHTDTLLKIESKKHKAYLRSAAIEEERESEFALRPTFDLTVRRNHLIEDVLNQLSQFENEDLRKELWVSFSGEIGYDLGGVKKEFFYCLFAEMIQPEYGMFMYPEGASCMWFPVKPKFEKKRYFFFGVLCGLSLFNCNVANLPFPLALFKKLLDQMPSLEDLKELSPDLGKNLQTLLDDEGDNFEEVFYIHFNVHWDRNDTNLIPNGSSITVNQTNKRDYVSKYINYIFNDSVKAVYEEFRRGFYKMCDEDIIKLFHPEELKDVIVGNTDYDWKTFEKNARYEPGYNSSHPTIVMFWKAFHKLTLEEKKKFLVFLTGTDRLQMKDLNNMKITFCCPESWNERDPIRALTCFSVLFLPKYSTMETVEEALQEAINNNRGFG	binds
TRIM56 (protein, UniProt Q9BRZ2 1-755) MVSHGSSPSLLEALSSDFLACKICLEQLRAPKTLPCLHTYCQDCLAQLADGGRVRCPECRETVPVPPEGVASFKTNFFVNGLLDLVKARACGDLRAGKPACALCPLVGGTSTGGPATARCLDCADDLCQACADGHRCTRQTHTHRVVDLVGYRAGWYDEEARERQAAQCPQHPGEALRFLCQPCSQLLCRECRLDPHLDHPCLPLAEAVRARRPGLEGLLAGVDNNLVELEAARRVEKEALARLREQAARVGTQVEEAAEGVLRALLAQKQEVLGQLRAHVEAAEEAARERLAELEGREQVARAAAAFARRVLSLGREAEILSLEGAIAQRLRQLQGCPWAPGPAPCLLPQLELHPGLLDKNCHLLRLSFEEQQPQKDGGKDGAGTQGGEESQSRREDEPKTERQGGVQPQAGDGAQTPKEEKAQTTREEGAQTLEEDRAQTPHEDGGPQPHRGGRPNKKKKFKGRLKSISREPSPALGPNLDGSGLLPRPIFYCSFPTRMPGDKRSPRITGLCPFGPREILVADEQNRALKRFSLNGDYKGTVPVPEGCSPCSVAALQSAVAFSASARLYLINPNGEVQWRRALSLSQASHAVAALPSGDRVAVSVAGHVEVYNMEGSLATRFIPGGKASRGLRALVFLTTSPQGHFVGSDWQQNSVVICDGLGQVVGEYKGPGLHGCQPGSVSVDKKGYIFLTLREVNKVVILDPKGSLLGDFLTAYHGLEKPRVTTMVDGRYLVVSLSNGTIHIFRVRSPDS	binds
